This assay deals with T1, Mmr1-HA (S. cerevisiae) (UniProt Q06324).
T1 sequence: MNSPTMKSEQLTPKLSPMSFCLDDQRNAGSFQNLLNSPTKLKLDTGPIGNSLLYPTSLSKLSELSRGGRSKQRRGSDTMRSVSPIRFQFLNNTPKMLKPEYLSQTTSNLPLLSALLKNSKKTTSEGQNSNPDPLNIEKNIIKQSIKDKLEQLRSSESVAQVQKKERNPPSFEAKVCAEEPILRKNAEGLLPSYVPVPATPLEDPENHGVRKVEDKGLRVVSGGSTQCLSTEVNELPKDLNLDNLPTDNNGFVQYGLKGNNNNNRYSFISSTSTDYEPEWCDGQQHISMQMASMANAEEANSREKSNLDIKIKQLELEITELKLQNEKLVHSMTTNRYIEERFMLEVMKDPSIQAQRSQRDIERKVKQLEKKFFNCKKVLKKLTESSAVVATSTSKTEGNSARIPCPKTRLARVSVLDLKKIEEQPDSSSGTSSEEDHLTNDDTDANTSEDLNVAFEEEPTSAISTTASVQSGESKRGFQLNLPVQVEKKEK
Kind of assay: co-IP; anti-HA (12CA5) and Protein A Sepharose from lysate of cim3-1 DMA1-FLAG MMR1-HA cells shifted to 37 °C; TBS, solubilised with 1% Triton X-100, washed with TBS 0.1% Tween-20, 4 °C; immunoblot with anti-HA and anti-FLAG. A general note: A western blot detects proteins with antibodies after separation by electrophoresis.

No constants are given. Whether binding was seen depends on the method and setting. In cells and extracts the contact can be indirect. Some binding calls cover weakened binding; strength is not graded here. Tags and fused reporters may be left off the sequences shown.

B1: Dma1-FLAG (protein, UniProt P38823 1-416)
chain: MSTNTVPSSPPNQTPPAASGIATSHDHTKFNNPIRLPISISLTINDTPNNNSNNNSVSNGLGILPSRTATSLVVANNGSANGNVGATAAAAATVETNTAPAVNTTKSIRHFIYPPNQVNQTEFSLDIHLPPNTSLPERIDQSTLKRRMDKHGLFSIRLTPFIDTSSTSVANQGLFFDPIIRTAGAGSQIIIGRYTERVREAISKIPDQYHPVVFKSKVISRTHGCFKVDDQGNWFLKDVKSSSGTFLNHQRLSSASTTSKDYLLHDGDIIQLGMDFRGGTEEIYRCVKMKIELNKSWKLKANAFNKEALSRIKNLQKLTTGLEQEDCSICLNKIKPCQAIFISPCAHSWHFHCVRRLVIMNYPQFMCPNCRTNCDLETTLESESESEFENEDEDEPDIEMDIDMEINNNLGVRLVD
As for B1, the binding result was “binds”.

The values are drawn from publication PMC9010424.
